One substance from publication PMC10740258 can be followed below.

No constants are given. Whether binding was seen depends on the method and setting. In cells and extracts the contact can be indirect. Binding can be weak; no strength is given. Tags and fused reporters may be left off the sequences shown.

For the test, the target named is T1, FLAG-Tagged human NUAK1 WT (human) (UniProt O60285).
T1 sequence: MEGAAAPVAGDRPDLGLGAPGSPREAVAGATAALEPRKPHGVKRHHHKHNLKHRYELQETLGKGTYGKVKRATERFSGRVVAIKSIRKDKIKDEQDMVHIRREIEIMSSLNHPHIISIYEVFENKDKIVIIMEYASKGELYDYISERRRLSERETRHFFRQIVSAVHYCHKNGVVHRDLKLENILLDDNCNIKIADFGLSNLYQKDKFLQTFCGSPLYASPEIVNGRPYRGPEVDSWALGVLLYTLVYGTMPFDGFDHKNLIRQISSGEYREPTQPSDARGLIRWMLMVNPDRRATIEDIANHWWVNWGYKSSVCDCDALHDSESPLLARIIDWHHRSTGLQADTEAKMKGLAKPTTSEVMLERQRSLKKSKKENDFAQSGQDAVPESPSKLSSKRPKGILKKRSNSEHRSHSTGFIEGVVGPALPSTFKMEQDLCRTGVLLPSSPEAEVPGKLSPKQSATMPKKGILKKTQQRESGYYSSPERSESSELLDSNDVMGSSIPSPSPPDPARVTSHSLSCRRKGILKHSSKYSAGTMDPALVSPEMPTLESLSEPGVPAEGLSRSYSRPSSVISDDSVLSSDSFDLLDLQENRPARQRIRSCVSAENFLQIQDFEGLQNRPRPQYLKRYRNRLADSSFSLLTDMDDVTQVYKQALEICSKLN
Description: proximity ligation; Duolink In Situ Red kit Mouse/Rabbit; MDA-MB-231 cells expressing HA-NUAK1, FLAG-NUAK1 or empty vector, serum-starved overnight and stimulated with EGF for 10 min; n = 3.

Regarding “Akt (endogenous) (human (endogenous in MDA-MB-231))”, the binding result is given as “binds”.
